One assay addresses GST-tagged ISG15 (UniProt P05161). Briefly: pull-down; GST-tagged UBL (ISG15, SUMO1 or ubiquitin) on magnetic glutathione beads mixed with a lysate of transfected HEK293T cells, overnight 4 °C, three washes in 50 mM Tris.HCl pH 8.0, 150 mM NaCl, 1% triton-x-100; immunoblot against FLAG and GST; only the target purified.
The target of another assay is GST-tagged-SUMO1 (UniProt P63165). Described as above.

The chains behind the UniProt entries cited, without tags or fusion partners. Where a name states a change or a piece, a line headed by the entry shows the natural chain unless it says otherwise. Residues count along the entry.
UniProt P05161, residues 1-157: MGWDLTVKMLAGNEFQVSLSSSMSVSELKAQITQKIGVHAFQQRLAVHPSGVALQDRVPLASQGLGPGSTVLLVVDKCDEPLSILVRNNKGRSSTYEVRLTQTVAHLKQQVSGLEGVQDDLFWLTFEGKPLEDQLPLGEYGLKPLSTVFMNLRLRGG
UniProt P63165, residues 1-97: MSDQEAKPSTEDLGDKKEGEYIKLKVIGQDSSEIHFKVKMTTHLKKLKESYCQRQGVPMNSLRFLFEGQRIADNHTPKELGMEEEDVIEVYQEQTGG
UniProt Q63HN8: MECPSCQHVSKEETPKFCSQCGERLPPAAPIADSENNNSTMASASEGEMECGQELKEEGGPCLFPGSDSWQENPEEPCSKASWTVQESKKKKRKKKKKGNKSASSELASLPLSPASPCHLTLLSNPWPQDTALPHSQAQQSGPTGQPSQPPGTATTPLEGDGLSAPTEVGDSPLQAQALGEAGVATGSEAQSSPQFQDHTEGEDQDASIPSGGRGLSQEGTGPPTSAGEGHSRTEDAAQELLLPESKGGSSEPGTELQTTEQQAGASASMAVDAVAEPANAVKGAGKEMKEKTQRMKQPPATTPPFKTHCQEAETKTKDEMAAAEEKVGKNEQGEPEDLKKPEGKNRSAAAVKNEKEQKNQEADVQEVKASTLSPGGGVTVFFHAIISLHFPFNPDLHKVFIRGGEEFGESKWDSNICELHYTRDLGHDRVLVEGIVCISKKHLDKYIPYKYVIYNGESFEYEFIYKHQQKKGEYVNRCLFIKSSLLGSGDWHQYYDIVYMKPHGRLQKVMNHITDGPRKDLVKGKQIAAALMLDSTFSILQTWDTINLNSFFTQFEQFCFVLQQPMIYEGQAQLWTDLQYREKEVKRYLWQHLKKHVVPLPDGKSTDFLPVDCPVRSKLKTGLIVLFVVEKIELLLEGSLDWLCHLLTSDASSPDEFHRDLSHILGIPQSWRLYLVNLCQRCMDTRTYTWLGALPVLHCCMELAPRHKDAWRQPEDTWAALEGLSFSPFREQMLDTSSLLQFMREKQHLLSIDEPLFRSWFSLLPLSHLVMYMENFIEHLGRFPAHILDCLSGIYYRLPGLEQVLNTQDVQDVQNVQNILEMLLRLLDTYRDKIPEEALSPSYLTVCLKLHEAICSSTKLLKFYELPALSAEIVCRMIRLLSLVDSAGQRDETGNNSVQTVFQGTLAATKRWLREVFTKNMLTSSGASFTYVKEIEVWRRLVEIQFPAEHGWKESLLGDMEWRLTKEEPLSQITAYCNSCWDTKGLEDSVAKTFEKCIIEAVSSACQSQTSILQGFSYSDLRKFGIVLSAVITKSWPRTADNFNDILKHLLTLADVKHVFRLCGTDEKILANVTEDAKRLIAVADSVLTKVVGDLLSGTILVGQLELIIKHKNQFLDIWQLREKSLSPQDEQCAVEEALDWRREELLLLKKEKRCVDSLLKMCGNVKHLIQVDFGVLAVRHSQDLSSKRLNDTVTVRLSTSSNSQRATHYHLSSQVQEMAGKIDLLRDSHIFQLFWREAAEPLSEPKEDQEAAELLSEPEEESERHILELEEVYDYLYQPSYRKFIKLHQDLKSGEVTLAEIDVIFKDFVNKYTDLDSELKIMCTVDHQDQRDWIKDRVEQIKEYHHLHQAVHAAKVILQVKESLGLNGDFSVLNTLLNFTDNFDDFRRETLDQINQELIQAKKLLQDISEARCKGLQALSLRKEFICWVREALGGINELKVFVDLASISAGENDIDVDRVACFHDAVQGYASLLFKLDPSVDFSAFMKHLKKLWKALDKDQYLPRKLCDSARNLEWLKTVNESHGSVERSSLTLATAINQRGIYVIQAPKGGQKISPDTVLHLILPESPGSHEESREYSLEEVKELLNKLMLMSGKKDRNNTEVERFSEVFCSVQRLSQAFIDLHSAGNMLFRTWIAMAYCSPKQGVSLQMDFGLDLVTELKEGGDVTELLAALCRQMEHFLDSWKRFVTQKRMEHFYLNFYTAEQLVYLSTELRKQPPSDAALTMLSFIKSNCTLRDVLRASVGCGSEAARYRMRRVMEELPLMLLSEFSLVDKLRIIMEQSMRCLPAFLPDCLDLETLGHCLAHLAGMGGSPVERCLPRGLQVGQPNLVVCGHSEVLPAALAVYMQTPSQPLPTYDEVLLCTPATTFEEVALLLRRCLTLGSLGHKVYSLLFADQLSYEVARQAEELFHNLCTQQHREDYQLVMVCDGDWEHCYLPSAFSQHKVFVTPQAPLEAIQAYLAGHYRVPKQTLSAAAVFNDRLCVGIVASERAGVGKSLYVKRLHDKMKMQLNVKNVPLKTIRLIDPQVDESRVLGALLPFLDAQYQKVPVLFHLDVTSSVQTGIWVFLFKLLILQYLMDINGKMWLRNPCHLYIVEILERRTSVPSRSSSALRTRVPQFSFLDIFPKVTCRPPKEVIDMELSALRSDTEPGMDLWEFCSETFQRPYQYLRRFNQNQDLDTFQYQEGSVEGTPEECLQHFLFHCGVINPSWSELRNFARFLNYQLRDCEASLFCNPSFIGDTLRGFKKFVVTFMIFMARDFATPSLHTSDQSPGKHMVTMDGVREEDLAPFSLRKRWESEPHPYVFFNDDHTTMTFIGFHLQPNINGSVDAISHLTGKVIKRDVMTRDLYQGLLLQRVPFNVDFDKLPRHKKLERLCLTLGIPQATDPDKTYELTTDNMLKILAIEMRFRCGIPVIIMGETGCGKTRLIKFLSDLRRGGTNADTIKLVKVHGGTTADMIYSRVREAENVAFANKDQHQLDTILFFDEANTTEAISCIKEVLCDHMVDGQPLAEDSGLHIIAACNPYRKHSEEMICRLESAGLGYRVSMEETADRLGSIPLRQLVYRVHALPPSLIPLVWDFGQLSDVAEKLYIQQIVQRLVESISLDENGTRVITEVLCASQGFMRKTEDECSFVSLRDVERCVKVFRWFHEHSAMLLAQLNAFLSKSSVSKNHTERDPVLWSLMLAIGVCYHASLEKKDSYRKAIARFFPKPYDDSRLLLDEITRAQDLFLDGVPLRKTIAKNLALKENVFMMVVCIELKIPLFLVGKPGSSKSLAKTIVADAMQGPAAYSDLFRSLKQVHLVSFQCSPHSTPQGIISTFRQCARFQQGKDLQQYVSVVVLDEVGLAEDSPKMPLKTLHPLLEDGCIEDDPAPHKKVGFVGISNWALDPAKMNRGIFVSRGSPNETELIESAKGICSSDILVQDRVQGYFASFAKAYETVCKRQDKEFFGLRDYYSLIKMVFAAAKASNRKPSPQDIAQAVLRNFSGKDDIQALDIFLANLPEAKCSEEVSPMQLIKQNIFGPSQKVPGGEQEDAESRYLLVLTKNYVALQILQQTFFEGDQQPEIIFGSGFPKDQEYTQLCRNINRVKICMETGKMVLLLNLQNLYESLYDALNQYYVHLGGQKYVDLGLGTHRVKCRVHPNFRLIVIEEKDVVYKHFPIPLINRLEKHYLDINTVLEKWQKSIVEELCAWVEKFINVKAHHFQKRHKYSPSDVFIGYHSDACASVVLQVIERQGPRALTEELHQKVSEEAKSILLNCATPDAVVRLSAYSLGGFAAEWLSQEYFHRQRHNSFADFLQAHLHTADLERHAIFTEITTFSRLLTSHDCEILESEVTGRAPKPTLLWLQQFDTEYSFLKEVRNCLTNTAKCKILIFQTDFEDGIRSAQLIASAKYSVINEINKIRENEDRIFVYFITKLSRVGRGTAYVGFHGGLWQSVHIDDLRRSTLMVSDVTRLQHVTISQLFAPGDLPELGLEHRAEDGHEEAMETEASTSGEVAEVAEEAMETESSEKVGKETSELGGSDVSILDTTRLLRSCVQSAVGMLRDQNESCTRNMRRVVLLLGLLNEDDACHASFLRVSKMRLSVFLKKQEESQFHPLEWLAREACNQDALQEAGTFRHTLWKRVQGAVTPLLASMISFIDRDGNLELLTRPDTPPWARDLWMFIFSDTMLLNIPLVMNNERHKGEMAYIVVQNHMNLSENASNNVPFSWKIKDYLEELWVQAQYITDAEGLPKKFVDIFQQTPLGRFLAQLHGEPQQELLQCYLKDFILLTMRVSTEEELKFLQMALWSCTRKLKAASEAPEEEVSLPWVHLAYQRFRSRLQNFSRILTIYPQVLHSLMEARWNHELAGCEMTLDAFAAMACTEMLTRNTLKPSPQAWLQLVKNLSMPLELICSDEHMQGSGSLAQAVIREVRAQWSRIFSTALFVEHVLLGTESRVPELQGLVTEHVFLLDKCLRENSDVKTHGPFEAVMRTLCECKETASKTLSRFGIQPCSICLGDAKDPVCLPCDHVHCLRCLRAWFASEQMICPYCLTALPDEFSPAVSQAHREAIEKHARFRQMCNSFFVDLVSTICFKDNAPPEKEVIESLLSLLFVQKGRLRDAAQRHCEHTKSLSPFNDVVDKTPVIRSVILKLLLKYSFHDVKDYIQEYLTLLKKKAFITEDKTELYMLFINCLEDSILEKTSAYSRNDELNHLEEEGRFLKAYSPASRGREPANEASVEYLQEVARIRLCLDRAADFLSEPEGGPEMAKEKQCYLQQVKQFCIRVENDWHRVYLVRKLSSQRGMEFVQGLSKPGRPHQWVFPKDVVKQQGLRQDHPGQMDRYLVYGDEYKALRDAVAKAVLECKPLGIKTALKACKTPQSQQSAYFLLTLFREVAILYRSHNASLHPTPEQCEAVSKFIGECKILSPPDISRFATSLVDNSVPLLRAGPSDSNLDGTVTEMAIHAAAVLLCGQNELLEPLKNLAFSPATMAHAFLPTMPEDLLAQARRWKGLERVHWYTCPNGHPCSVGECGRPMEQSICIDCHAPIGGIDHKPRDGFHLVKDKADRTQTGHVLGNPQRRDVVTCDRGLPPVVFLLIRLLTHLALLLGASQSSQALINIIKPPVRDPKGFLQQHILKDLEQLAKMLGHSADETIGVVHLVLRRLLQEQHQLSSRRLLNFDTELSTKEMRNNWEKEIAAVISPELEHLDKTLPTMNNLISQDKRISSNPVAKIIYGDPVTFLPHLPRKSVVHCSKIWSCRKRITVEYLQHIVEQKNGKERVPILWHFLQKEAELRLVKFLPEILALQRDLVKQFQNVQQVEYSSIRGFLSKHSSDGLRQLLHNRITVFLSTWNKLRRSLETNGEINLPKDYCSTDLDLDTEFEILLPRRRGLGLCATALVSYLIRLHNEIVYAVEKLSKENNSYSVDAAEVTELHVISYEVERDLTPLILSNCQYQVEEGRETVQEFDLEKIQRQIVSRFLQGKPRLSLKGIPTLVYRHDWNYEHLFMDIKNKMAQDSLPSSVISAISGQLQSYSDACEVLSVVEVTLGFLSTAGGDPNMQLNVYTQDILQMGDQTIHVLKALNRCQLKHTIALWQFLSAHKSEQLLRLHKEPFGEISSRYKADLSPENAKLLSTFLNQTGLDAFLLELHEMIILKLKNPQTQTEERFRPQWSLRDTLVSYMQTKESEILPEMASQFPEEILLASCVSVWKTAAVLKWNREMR

Our source for the binding values is PMC8486878.

These are yes or no findings as the source states them, for the method shown. Binding seen in cells or lysates may run through a third protein. Some binding calls cover weakened binding; strength is not graded here.

For “3xFLAG-RNF213ΔC (from UniProt Q63HN8 1-3997) (domain or fragment)”, the binding result with GST-tagged ISG15 was “binds”.

For “full-length 3xFLAG-RNF213 (from UniProt Q63HN8 1-5207)”, in the assay with GST-tagged-SUMO1, the binding result is “no binding”.
